Data published in the supplement of paper PMC10849652.
The other results are listed elsewhere or left out.

Chains of the proteins cited; added tags and fusions are not shown. Lines headed by an entry give the natural chain unless they say otherwise; changes in a name come on top.
UniProt Q13200: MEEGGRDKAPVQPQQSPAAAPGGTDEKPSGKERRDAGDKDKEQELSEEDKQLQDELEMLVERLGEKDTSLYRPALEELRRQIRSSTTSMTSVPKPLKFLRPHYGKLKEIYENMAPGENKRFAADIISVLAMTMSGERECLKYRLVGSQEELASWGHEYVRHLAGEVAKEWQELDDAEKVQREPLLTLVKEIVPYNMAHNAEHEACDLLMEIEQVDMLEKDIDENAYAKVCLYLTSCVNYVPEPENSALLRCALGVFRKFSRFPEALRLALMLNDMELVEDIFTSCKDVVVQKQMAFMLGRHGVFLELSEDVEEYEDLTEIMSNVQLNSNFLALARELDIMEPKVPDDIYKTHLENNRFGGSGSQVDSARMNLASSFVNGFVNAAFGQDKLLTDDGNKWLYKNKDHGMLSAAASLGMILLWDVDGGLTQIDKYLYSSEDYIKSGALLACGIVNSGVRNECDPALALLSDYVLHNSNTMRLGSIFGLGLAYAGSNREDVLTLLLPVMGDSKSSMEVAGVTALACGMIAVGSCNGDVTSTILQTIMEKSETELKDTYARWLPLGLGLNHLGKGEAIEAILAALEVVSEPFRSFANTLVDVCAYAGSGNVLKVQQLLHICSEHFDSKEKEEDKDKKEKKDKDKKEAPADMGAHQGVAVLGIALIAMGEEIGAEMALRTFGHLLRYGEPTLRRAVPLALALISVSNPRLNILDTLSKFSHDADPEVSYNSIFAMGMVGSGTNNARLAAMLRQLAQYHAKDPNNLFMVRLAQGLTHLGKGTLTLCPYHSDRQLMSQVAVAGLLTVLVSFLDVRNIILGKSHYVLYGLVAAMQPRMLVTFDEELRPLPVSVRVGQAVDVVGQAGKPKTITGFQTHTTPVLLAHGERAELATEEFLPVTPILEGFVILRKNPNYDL
UniProt Q12913: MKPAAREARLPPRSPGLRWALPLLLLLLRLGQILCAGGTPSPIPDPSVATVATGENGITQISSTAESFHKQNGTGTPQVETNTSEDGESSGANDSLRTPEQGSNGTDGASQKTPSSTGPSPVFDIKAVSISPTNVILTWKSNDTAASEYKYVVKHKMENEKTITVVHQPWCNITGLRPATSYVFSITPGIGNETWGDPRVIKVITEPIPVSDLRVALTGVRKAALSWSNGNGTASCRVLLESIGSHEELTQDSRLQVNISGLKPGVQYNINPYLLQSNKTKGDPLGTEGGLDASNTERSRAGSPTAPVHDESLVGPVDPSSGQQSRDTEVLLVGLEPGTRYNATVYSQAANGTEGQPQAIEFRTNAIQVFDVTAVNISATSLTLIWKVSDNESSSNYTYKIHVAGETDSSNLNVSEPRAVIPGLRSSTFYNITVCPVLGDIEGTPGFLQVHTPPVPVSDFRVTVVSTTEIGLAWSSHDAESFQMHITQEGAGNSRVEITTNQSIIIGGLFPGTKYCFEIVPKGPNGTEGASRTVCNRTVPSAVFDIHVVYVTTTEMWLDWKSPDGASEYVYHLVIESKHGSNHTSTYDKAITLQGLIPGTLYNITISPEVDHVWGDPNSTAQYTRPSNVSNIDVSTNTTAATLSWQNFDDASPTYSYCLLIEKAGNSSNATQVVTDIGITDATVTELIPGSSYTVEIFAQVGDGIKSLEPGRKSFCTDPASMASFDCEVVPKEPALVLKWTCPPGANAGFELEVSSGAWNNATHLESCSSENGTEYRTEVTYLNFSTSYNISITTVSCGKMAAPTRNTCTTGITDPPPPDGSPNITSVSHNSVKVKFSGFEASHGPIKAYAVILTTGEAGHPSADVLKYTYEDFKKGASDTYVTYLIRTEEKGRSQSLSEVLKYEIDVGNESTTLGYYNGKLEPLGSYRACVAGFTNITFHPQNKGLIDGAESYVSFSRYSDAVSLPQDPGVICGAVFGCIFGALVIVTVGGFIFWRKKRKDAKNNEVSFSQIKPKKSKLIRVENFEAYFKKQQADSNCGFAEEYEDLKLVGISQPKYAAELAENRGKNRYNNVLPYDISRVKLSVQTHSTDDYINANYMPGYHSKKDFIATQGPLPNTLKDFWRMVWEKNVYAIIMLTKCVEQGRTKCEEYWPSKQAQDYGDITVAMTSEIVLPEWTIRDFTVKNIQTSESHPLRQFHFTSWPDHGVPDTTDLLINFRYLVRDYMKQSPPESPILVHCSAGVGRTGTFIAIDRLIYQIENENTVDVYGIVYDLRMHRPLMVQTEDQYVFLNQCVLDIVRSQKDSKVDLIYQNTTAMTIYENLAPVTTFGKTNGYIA
UniProt Q8N0Z8: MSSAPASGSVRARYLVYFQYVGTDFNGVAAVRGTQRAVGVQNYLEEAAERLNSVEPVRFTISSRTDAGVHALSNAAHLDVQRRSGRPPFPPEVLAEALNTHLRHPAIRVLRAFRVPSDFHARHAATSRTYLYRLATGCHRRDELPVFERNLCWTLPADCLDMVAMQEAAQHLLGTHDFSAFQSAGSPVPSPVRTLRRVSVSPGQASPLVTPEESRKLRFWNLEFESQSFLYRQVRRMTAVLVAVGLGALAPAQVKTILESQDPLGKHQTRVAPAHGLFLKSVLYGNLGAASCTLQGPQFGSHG

What was measured:
Assay in all cases: log2 fold change, soluble protein after heating vs DMSO (PISA); higher = thermal stabilisation; K562 lysate, 10 uM; active = over 0.2 and 3.5 SD of the protein, either way, in both replicates (recomputed)
[1] = compound: C#Cc1cccc(Nc2ncnc3cc(OCCOC)c(OCCOC)cc23)c1 [erlotinib]
Summary of the method: (§1)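 A 30 min treatment with 10 μM compound was applied to crude K562 extract at 1 mg/mL protein in PBS pH 7.4 with 1 mM MgCl2. Heating for 3 min spanned 48°C-58°C, after which aliquots were pooled, adjusted to 0.5% NP-40 at 4°C and spun at 21,000xg for 90 min. TMTpro 16plex LC-MS/MS of the supernatant, with channel sums equalised, gave values recorded as log-two fold change in thermal stability against solvent controls, from duplicates.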

[2] = compound: C/C(=N\NC(=O)C1=CC(=CC=C1)S(=O)(=O)N2CCOCC2)/C3=C(C=CC(=C3)Cl)O
Summary of the method: as §1

[3] = compound: C1=CC(=CC=C1C2=NC3=C(N2)C=C(C=C3)C(=O)N)OC4=CC=C(C=C4)Cl
Summary of the method: as §1

[4] = compound: C1=CC2=C(C=CC(=C2)/C=C\3/C(=O)NC(=NCC4=CC=CS4)S3)N=C1
Summary of the method: as §1

[5] = compound: C1=CC2=NC=CN=C2C=C1/C=C/3\C(=O)NC(=O)S3
Summary of the method: as §1

[6] = compound: C1=CC=C(C=C1)C2=NC(=C(N2)C3=CC=NC=C3)C4=CC(=C(C=C4)Cl)O
Summary of the method: as §1

[7] = compound: C1=CC=C2C(=C1)C3=NNC4=CC=CC(=C43)C2=O
Summary of the method: as §1

[8] = compound: C1CCN(C1)C(=O)NC2=CC=CC(=C2)NC3=NC=C(C(=N3)NCCC4=CN=CN4)Br
Summary of the method: as §1

[9] = compound: C1CN(CCC1(CC2=CC=C(C=C2)Cl)N)C3=NC=NC4=C3C=CN4
Summary of the method: as §1

[10] = compound: C1COCCN1CCN2C3=CC=CC=C3N=C2NC(=O)C4=CC(=CC=C4)[N+](=O)[O-] [IRAK-1-4 Inhibitor I]
Summary of the method: as §1

[11] = compound: C=CC(=O)N1CCC[C@@H](n2nc(-c3ccc(Oc4ccccc4)cc3)c3c(N)ncnc32)C1 [ibrutinib]
Summary of the method: as §1

[12] = compound: CC(=O)c1cnc2ccc(-c3cc(Cl)c(O)c(Cl)c3)nc2c1N[C@H]1CC[C@H](CN(C)C)CC1
Summary of the method: as §1

[13] = compound: CC(C)(C)Cn1c(N)nc2ccc(-c3[nH]c(C(C)(C)C)nc3-c3ccc(F)cc3)nc21 [ralimetinib]
Summary of the method: as §1

[14] = compound: CC(C)(O)CC(=O)NCCn1ccc2ncnc(Nc3ccc(Oc4cccc(C(F)(F)F)c4)c(Cl)c3)c21
Summary of the method: as §1

[15] = compound: CC(C)C1=C2N=C(C=C(N2N=C1)NCC3=CC=CC=C3)NCCCCCCN
Summary of the method: as §1

[16] = compound: CC1=C(C(CC(=O)N1)C2=CC=C(C=C2)C(F)(F)F)C(=O)NC3=C(C=C4C(=C3)C=NN4)F
Summary of the method: as §1

[17] = compound: CC1=C(C2=C(C=C1)C(=O)C3=CC=CC=C3N2CCCN)C
Summary of the method: as §1

[18] = compound: CC1=C(C=C(C=C1)NC(=O)C2=CC(=CC=C2)C(C)(C)C#N)NC3=CC4=C(C=C3)N=CN(C4=O)C
Summary of the method: as §1

[19] = compound: CC1=C(C=C(C=C1)NC(=O)C2=CC(=CC=C2)N(C)C)NC(=O)C3=CC=C(C=C3)O
Summary of the method: as §1

[20] = compound: CC1=CC=C(C=C1)SC2=C3C=C(SC3=CN=C2)C(=O)N
Summary of the method: as §1

Measured: log2 fold change

PTDSS1 (UniProt P48651)
inactive: [1] -0.046 | [2] -0.031 | [3] -0.295 | [4] -0.111 | [5] -0.033 | [6] -0.117 | [7] -0.107 | [8] 0.036 | [9] 0.079 | [10] 0.024 | [11] -0.072 | [12] 0.103 | [13] 0.017 | [14] -0.171 | [15] -0.021 | [16] -0.064 | [17] -0.007 | [18] 0.033 | [19] -0.026 | [20] 0.014

PSMD2 (UniProt Q13200)
inactive: [1] 0.001 | [2] 0.007 | [3] 0.004 | [4] -0.01 | [5] -0.029 | [6] 0.007 | [7] -0.016 | [8] 0.003 | [9] 0.011 | [10] -0.001 | [11] -0.019 | [12] -0.001 | [13] 0.004 | [14] -0.011 | [15] -0.004 | [16] -0.002 | [17] -0.009 | [18] 0.006 | [19] 0.005 | [20] 0.008

PTPRJ (UniProt Q12913)
inactive: [1] -0.152 | [2] -0.338 | [3] 0.092 | [4] -0.155 | [5] -0.197 | [6] -0.093 | [7] -0.041 | [8] -0.051 | [9] -0.042 | [10] -0.043 | [11] 0.079 | [12] 0 | [13] 0.144 | [14] 0.153 | [15] -0.03 | [16] 0.069 | [18] -0.084 | [19] -0.028 | [20] -0.09

2 consecutive records out of the list so far, quoted:
PSMD2 (UniProt Q13200)
inactive: [1] 0.001 | [2] 0.007 | [3] 0.004 | [4] -0.01 | [5] -0.029 | [6] 0.007 | [7] -0.016 | [8] 0.003 | [9] 0.011 | [10] -0.001 | [11] -0.019 | [12] -0.001 | [13] 0.004 | [14] -0.011 | [15] -0.004 | [16] -0.002 | [17] -0.009 | [18] 0.006 | [19] 0.005 | [20] 0.008

PTPRJ (UniProt Q12913)
inactive: [1] -0.152 | [2] -0.338 | [3] 0.092 | [4] -0.155 | [5] -0.197 | [6] -0.093 | [7] -0.041 | [8] -0.051 | [9] -0.042 | [10] -0.043 | [11] 0.079 | [12] 0 | [13] 0.144 | [14] 0.153 | [15] -0.03 | [16] 0.069 | [18] -0.084 | [19] -0.028 | [20] -0.09

Following part.

PSMA3 (UniProt H0YJ03)
inactive: [1] 0.012 | [2] -0.067 | [3] -0.038 | [4] 0.069 | [6] -0.006 | [7] 0.111 | [8] -0.075 | [9] 0.067 | [10] 0.09 | [12] -0.058 | [13] 0.004 | [14] -0.105 | [15] -0.07 | [17] -0.108 | [18] 0.1 | [19] 0.007 | [20] -0.006

PUSL1 (UniProt Q8N0Z8)
inactive: [1] 0 | [2] -0.043 | [3] 0.197 | [4] 0.001 | [5] -0.1 | [6] -0.061 | [7] 0.042 | [8] 0.021 | [9] -0.053 | [10] 0.028 | [11] -0.053 | [12] -0.039 | [13] 0.002 | [14] -0.03 | [15] -0.031 | [16] -0.064 | [17] 0.146 | [18] -0.019 | [19] -0.075 | [20] 0.078

PSMD4 (UniProt Q5VWC4)
inactive: [1] -0.07 | [2] -0.105 | [3] -0.179 | [4] 0.098 | [5] -0.024 | [6] -0.019 | [7] 0.031 | [10] -0.005 | [11] 0.045 | [13] -0.009 | [14] 0.069 | [15] -0.151 | [16] -0.069 | [18] 0.053 | [19] 0.021
